Results are given in words; binding and its absence hold for the method and conditions named. In cells and extracts the contact can be indirect. Some entries that bind do so weakly or less than the wild type.

The target of this test is T1, TRAF6 (UniProt P70196).
T1 sequence: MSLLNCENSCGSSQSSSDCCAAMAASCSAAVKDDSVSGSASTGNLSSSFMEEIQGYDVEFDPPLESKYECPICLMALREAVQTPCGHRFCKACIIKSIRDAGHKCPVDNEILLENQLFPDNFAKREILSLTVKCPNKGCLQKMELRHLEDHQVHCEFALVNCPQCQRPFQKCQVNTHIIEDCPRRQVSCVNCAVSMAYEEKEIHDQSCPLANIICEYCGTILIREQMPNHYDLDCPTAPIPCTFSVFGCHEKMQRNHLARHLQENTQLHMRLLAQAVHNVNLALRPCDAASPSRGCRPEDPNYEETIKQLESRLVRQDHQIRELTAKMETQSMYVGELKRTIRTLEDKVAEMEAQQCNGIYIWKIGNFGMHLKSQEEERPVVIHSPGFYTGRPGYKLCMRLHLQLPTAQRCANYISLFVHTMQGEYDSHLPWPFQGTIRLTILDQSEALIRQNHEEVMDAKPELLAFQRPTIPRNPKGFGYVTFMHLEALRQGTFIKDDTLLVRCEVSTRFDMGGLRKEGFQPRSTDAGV
The test can be described thus: co-IP; cells lysed in IP lysis buffer 48 h after transfection; lysate incubated with anti-Flag M2 beads or His-tag purification resin at 4 °C for 4 h; washed four to five times with NETN buffer; Western blotting; bait not stated. For orientation: In western blotting, separated proteins are transferred to a membrane and probed.

B1: Acyl-CoA dehydrogenase-9 (ACAD9) (protein, UniProt Q8JZN5 42-625)
chain: SFAKELFLGNIEQKGVFPFPEVSQHELSEINQFVGPLEKFFTEEVDSRKIDQEGKIPVDTLEKLKSLGLFGIQVPEEYGGLGLSNTMYARLGEIISLDASITVTLAAHQAIGLKGIILVGNEEQKAKYLPKLSSGEHIAAFCLTEPASGSDAASIQTRATLSEDKKYFILNGSKVWITNGGLANIFTVFAKTEVVDSDGSKTDKMTAFIVERDFGGITNGKPEDKLGIRGSNTCEVHFENTRVPVENVLGEVGGGFKVAMNILNSGRFSMGSAVAGMLKKLIELTAEYACTRKQFNRNLSEFGLIQEKFALMAQKAYVMESMAYLTSGMLDQPGFPDCSIEAAMVKVFSSEAAWQCVSEALQILGGSGYMKDYPYERMLRDARILLIFEGTNEILRLFIALTGLQHAGRILTSRIKELKSGNVTTVMETIGRKLRDSLGRTVDLGLTGDLGVVHPSLGDSANKLEENVHYFGRTVETLLLRFGKNIVEEQLVLKRVANILINLYGMTAVLSRASRSIRIGLRNHDHEVLLANMFCVEAYFQNLFSLSQLDKNAPENLDEQIKKVSRQILEKRAYICAHPLDRAS
With B1, the binding entry is given as “binds”.

These data come from publication PMC13039524.
